Data: patent publication US20130210167A1, “IMMUNOASSAY FOR PYRROLIDINOPHENONES” (RANDOX LABORATORIES LIMITED, priority 2012, published 2013)
At least one compound was matched to its structure with a doubt left.

Tested on: polyclonal antibody raised to Immunogen IV
Assay: Competitive biochip immunoassay of pyrrolidinophenones and potential cross-reactants (Evidence Investigator)
Assay type: binding, sheep

For `O=C1Nc2ccc(Cl)cc2C(c2ccccc2)=NC1O` (centres unmarked) [Oxazepam], the “% Cross-reactivity” value was under 1%.
In the case of `CCC1(c2ccccc2)C(=O)NC(=O)NC1=O` [Phenobarbital], the “% Cross-reactivity” value is reported as under 1%.
